# Data reported in the supplement of paper PMC8728848.
# This is one part of the list.
# B1: Gal 12 (Homo sapiens), Q96DT0 (protein)
# chain: MSQPSGGRAPGTRIYSWSCPTVMSPGEKLDPIPDSFILQPPVFHPVVPYVTTIFGGLHAGKMVMLQGVVPLDAHRFQVDFQCGCSLCPRPDIAFHFNPRFHTTKPHVICNTLHGGRWQREARWPHLALRRGSSFLILFLFGNEEVKVSVNGQHFLHFRYRLPLSHVDTLGIFGDILVEAVGFLNINPFVEGSREYPAGHPFLLMSPRLEVPCSHALPQGLSPGQVIIVRGLVLQEPKHFTVSLRDQAAHAPVTLRASFADRTLAWISRWGQKKLISAPFLFYPQRFFEVLLLFQEGGLKLALNGQGLGATSMNQQALEQLRELRISGSVQLYCVHS
# Key:
# Experiment in all cases: glycan array binding signal (z-score within array); higher = stronger binding
# Conditions in all cases: glycan notation: IUPAC condensed, linker removed
# [1] = molecular target: Neu5Ac(a2-3)Gal(b1-4)[Fuc(a1-3)]GlcNAc6S
# Outline: (§1)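 Negative Z-scores can be read as non-binding. The Z-score is calculated within each array and then averaged across arrays of one protein sequence at different concentrations or buffers and across linkers. Arrays, 3228 in all, were curated from the Consortium for Functional Glycomics database and kept only where the protein sequence was available.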
# [2] = molecular target: Neu5Ac(a2-3)Gal6S(b1-4)GlcNAc
# Outline: as §1
# [3] = molecular target: Neu5Ac(a2-3)Gal6S(b1-4)[Fuc(a1-3)]GlcNAc
# Outline: as §1
# [4] = molecular target: Neu5Ac(a2-3)GalNAc
# Outline: as §1
# [5] = molecular target: Neu5Ac(a2-3)GalNAc(b1-4)GlcNAc
# Outline: as §1
# [6] = molecular target: Neu5Ac(a2-3)[GalNAc(b1-4)]Gal(b1-4)Glc
# Outline: as §1
# [7] = molecular target: Neu5Ac(a2-3)[GalNAc(b1-4)]Gal(b1-4)GlcNAc
# Outline: as §1
# [8] = molecular target: Neu5Ac(a2-3)[GalNAc(b1-4)]Gal(b1-4)GlcNAc(b1-3)GalNAc
# Outline: as §1
# [9] = molecular target: Neu5Ac(a2-3)[Neu5Ac(a2-6)]GalNAc
# Outline: as §1
# [10] = molecular target: Neu5Ac(a2-6)Gal
# Outline: as §1
# [11] = molecular target: Neu5Ac(a2-6)Gal(b1-3)GlcNAc(b1-3)[Gal(b1-4)GlcNAc(b1-6)]Gal(b1-4)Glc
# Outline: as §1
# [12] = molecular target: Neu5Ac(a2-6)Gal(b1-4)Glc
# Outline: as §1
# [13] = molecular target: Neu5Ac(a2-6)Gal(b1-4)GlcNAc
# Outline: as §1
# [14] = molecular target: Neu5Ac(a2-6)Gal(b1-4)GlcNAc(b1-2)Man
# Outline: as §1
# [15] = molecular target: Neu5Ac(a2-6)Gal(b1-4)GlcNAc(b1-2)Man(a1-3)Man(b1-4)GlcNAc(b1-4)GlcNAc
# Outline: as §1
# [16] = molecular target: Neu5Ac(a2-6)Gal(b1-4)GlcNAc(b1-2)Man(a1-3)[Gal(b1-4)GlcNAc(b1-2)Man(a1-6)]Man(b1-4)GlcNAc(b1-4)GlcNAc
# Outline: as §1
# [17] = molecular target: Neu5Ac(a2-6)Gal(b1-4)GlcNAc(b1-2)Man(a1-3)[GlcNAc(b1-2)Man(a1-6)]Man(b1-4)GlcNAc(b1-4)GlcNAc
# Outline: as §1
# [18] = molecular target: Neu5Ac(a2-6)Gal(b1-4)GlcNAc(b1-2)Man(a1-3)[GlcNAc(b1-2)Man(b1-4)GlcNAc(b1-2)Man(a1-6)]Man(b1-4)GlcNAc(b1-4)GlcNAc
# Outline: as §1
# [19] = molecular target: Neu5Ac(a2-6)Gal(b1-4)GlcNAc(b1-2)Man(a1-3)[GlcNAc(b1-4)][Neu5Ac(a2-6)Gal(b1-4)GlcNAc(b1-2)Man(a1-6)]Man(b1-4)GlcNAc(b1-4)GlcNAc
# Outline: as §1
# [20] = molecular target: Neu5Ac(a2-6)Gal(b1-4)GlcNAc(b1-2)Man(a1-3)[Man(a1-6)]Man(b1-4)GlcNAc(b1-4)GlcNAc
# Outline: as §1
# [21] = molecular target: Neu5Ac(a2-6)Gal(b1-4)GlcNAc(b1-2)Man(a1-3)[Neu5Ac(a2-3)Gal(b1-4)GlcNAc(b1-2)Man(a1-6)]Man(b1-4)GlcNAc(b1-4)GlcNAc
# Outline: as §1
# [22] = molecular target: Neu5Ac(a2-6)Gal(b1-4)GlcNAc(b1-2)Man(a1-3)[Neu5Ac(a2-6)Gal(b1-4)GlcNAc(b1-2)Man(a1-6)]Man(b1-4)GlcNAc(b1-4)GlcNAc
# Outline: as §1
# [23] = molecular target: Neu5Ac(a2-6)Gal(b1-4)GlcNAc(b1-2)Man(a1-3)[Neu5Ac(a2-6)Gal(b1-4)GlcNAc(b1-2)Man(a1-6)]Man(b1-4)GlcNAc(b1-4)[Fuc(a1-6)]GlcNAc
# Outline: as §1
# [24] = molecular target: Neu5Ac(a2-6)Gal(b1-4)GlcNAc(b1-2)Man(a1-6)Man(b1-4)GlcNAc(b1-4)GlcNAc
# Outline: as §1
# [25] = molecular target: Neu5Ac(a2-6)Gal(b1-4)GlcNAc(b1-2)Man(a1-6)[Gal(b1-4)GlcNAc(b1-2)Man(a1-3)]Man(b1-4)GlcNAc(b1-4)GlcNAc
# Outline: as §1
# [26] = molecular target: Neu5Ac(a2-6)Gal(b1-4)GlcNAc(b1-2)Man(a1-6)[GlcNAc(b1-2)Man(a1-3)]Man(b1-4)GlcNAc(b1-4)GlcNAc
# Outline: as §1
# [27] = molecular target: Neu5Ac(a2-6)Gal(b1-4)GlcNAc(b1-2)Man(a1-6)[Man(a1-3)]Man(b1-4)GlcNAc(b1-4)GlcNAc
# Outline: as §1
# [28] = molecular target: Neu5Ac(a2-6)Gal(b1-4)GlcNAc(b1-2)[Neu5Ac(a2-6)Gal(b1-4)GlcNAc(b1-4)]Man(a1-3)[GlcNAc(b1-4)][Neu5Ac(a2-6)Gal(b1-4)GlcNAc(b1-2)[Neu5Ac(a2-6)Gal(b1-4)GlcNAc(b1-6)]Man(a1-6)]Man(b1-4)GlcNAc(b1-4)GlcNAc
# Outline: as §1
# [29] = molecular target: Neu5Ac(a2-6)Gal(b1-4)GlcNAc(b1-2)[Neu5Ac(a2-6)Gal(b1-4)GlcNAc(b1-4)]Man(a1-3)[GlcNAc(b1-4)][Neu5Ac(a2-6)Gal(b1-4)GlcNAc(b1-4)Man(a1-6)]Man(b1-4)GlcNAc(b1-4)GlcNAc
# Outline: as §1
# [30] = molecular target: Neu5Ac(a2-6)Gal(b1-4)GlcNAc(b1-2)[Neu5Ac(a2-6)Gal(b1-4)GlcNAc(b1-6)]Man(a1-6)[Neu5Ac(a2-6)Gal(b1-4)GlcNAc(b1-2)Man(a1-3)][GlcNAc(b1-4)]Man(b1-4)GlcNAc(b1-4)GlcNAc
# Outline: as §1
# [31] = molecular target: Neu5Ac(a2-6)Gal(b1-4)GlcNAc(b1-3)Gal(b1-3)GlcNAc
# Outline: as §1
# [32] = molecular target: Neu5Ac(a2-6)Gal(b1-4)GlcNAc(b1-3)Gal(b1-4)GlcNAc
# Outline: as §1
# [33] = molecular target: Neu5Ac(a2-6)Gal(b1-4)GlcNAc(b1-3)Gal(b1-4)GlcNAc(b1-2)Man(a1-3)[Neu5Ac(a2-6)Gal(b1-4)GlcNAc(b1-3)Gal(b1-4)GlcNAc(b1-2)Man(a1-6)]GalNAc
# Outline: as §1
# [34] = molecular target: Neu5Ac(a2-6)Gal(b1-4)GlcNAc(b1-3)Gal(b1-4)GlcNAc(b1-3)Gal(b1-4)GlcNAc
# Outline: as §1
# [35] = molecular target: Neu5Ac(a2-6)Gal(b1-4)GlcNAc(b1-3)Gal(b1-4)GlcNAc(b1-3)Gal(b1-4)GlcNAc(b1-2)Man(a1-3)[Neu5Ac(a2-6)Gal(b1-4)GlcNAc(b1-3)Gal(b1-4)GlcNAc(b1-3)Gal(b1-4)GlcNAc(b1-2)Man(a1-6)]GalNAc
# Outline: as §1
# [36] = molecular target: Neu5Ac(a2-6)Gal(b1-4)GlcNAc(b1-3)Gal(b1-4)GlcNAc(b1-3)GalNAc
# Outline: as §1
# [37] = molecular target: Neu5Ac(a2-6)Gal(b1-4)GlcNAc(b1-3)Gal(b1-4)GlcNAc(b1-3)[Neu5Ac(a2-6)Gal(b1-4)GlcNAc(b1-3)Gal(b1-4)GlcNAc(b1-6)]GalNAc
# Outline: as §1
# [38] = molecular target: Neu5Ac(a2-6)Gal(b1-4)GlcNAc(b1-3)Gal(b1-4)GlcNAc(b1-6)[Gal(b1-3)]GalNAc
# Outline: as §1
# [39] = molecular target: Neu5Ac(a2-6)Gal(b1-4)GlcNAc(b1-3)Gal(b1-4)[Fuc(a1-3)]GlcNAc(b1-3)Gal(b1-4)[Fuc(a1-3)]GlcNAc
# Outline: as §1
# [40] = molecular target: Neu5Ac(a2-6)Gal(b1-4)GlcNAc(b1-3)GalNAc
# Outline: as §1
binder,measurement,setting,value
B1,glycan array binding signal (z-score),[1],-0.112
same,glycan array binding signal (z-score),[2],-0.309
same,glycan array binding signal (z-score),[3],-0.698
same,glycan array binding signal (z-score),[4],-0.835
same,glycan array binding signal (z-score),[5],-0.918
same,glycan array binding signal (z-score),[6],-0.263
same,glycan array binding signal (z-score),[7],-0.331
same,glycan array binding signal (z-score),[8],-0.063
same,glycan array binding signal (z-score),[9],-0.175
same,glycan array binding signal (z-score),[10],0.821
same,glycan array binding signal (z-score),[11],-0.351
same,glycan array binding signal (z-score),[12],0.189
same,glycan array binding signal (z-score),[13],-0.58
same,glycan array binding signal (z-score),[14],-0.623
same,glycan array binding signal (z-score),[15],0.102
same,glycan array binding signal (z-score),[16],-0.942
same,glycan array binding signal (z-score),[17],-0.036
same,glycan array binding signal (z-score),[18],0.364
same,glycan array binding signal (z-score),[19],-0.856
same,glycan array binding signal (z-score),[20],0.174
same,glycan array binding signal (z-score),[21],-0.815
same,glycan array binding signal (z-score),[22],-0.039
same,glycan array binding signal (z-score),[23],1.24
same,glycan array binding signal (z-score),[24],-0.138
same,glycan array binding signal (z-score),[25],0.06
same,glycan array binding signal (z-score),[26],-0.369
same,glycan array binding signal (z-score),[27],-0.31
same,glycan array binding signal (z-score),[28],0.895
same,glycan array binding signal (z-score),[29],0.922
same,glycan array binding signal (z-score),[30],-1.1
same,glycan array binding signal (z-score),[31],0.218
same,glycan array binding signal (z-score),[32],-0.893
same,glycan array binding signal (z-score),[33],0.229
same,glycan array binding signal (z-score),[34],-0.153
same,glycan array binding signal (z-score),[35],1.05
same,glycan array binding signal (z-score),[36],-0.832
same,glycan array binding signal (z-score),[37],-0.48
same,glycan array binding signal (z-score),[38],-1.34
same,glycan array binding signal (z-score),[39],1.13
same,glycan array binding signal (z-score),[40],0.153

# Random excerpt: two records from the list, in no set order.
binder,measurement,setting,value
B1,glycan array binding signal (z-score),[8],-0.063
same,glycan array binding signal (z-score),[26],-0.369
